Experimental data: the supplement of paper PMC10338343
± gives the standard deviation. The entries are a selection whose mix differs from that of the whole data set. The uncertainty is large for many entries.

Tested on: MILI (PIWIL2) piRISC loaded with L1MC piRNA (26 nt)
Test: pre-steady-state target cleavage rate (min^-1); MIWI and MILI are mouse PIWI proteins and EfPiwi is from a freshwater sponge; tags in brackets are library labels; higher = faster piRNA-guided slicing of the target
Details: guide: L1MC piRNA 5'p-UAACUAAAUACUAUGCAAGCUGUAGG; auxiliary factor: 500 nM mouse GTSF1
In short: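 With or without 500 nM GTSF1 partner protein, 1 nM active affinity-purified piRISC carrying one synthetic guide was mixed with 0.1 nM transcribed, DNA-blocked target RNA library in HEPES–potassium acetate buffer at 33 °C for 0–8 or 0–960 min. Uncleaved targets were sequenced and normalised to depth and to weakly complementary targets, three trials were pooled, and k3 was capped at 0.0001 min^-1. The pre-steady-state cleavage rate came from a burst-and-steady-state fit.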

Sequence | pre-steady-state target cleavage rate
UCCUGCUUCAGCUUGCAUAGUAUUUUGUUA | 0.144 ± 0.025
UCCUCCUAGUCCUUGCAUAGUAUUUAGUAA | 0.102 ± 0.018
UCCUGGAUGUCGAUGCUUAGUAUUUACUUA | 0.000513 ± 0.015
UCCUGGAUGUCGUGCAUAGUAUUUAGUUA | 0.115 ± 0.014
UCCUGGAUGUCGUUGGAUAGUAUUUAGUUA | 0.0108 ± 0.0042
UCCUGGAUCAGCUUGGAUAGUAUUAAGUUA | 0.162 ± 0.027
UCCUGGAUGUGCAUGCAUAGUAUUUAGAUA | 0.146 ± 0.032
UCCUGGAUGUCGAACGAUAGUAUUUAAGUUA | 0.000174 ± 0.031
UCCUCCUACAGCUUCCAUUGUAUUUAGUUA | 0.0834 ± 0.015
UCCUGGAUGUCGUUGCAUAGUAUAUACUUA | 0.000422 ± 0.016
UCCUCCUACACCUUGCAUAGUAAUUAGUUA | 0.196 ± 0.031
UCCUGGAACAGGAUGCAUAGUAUUUAGUUA | 0.285 ± 0.016
UCCUGGAUCAGGUUGCAUAGUAAUUAGUUA | 0.152 ± 0.015
UCCUGGAUGUCCUUGCAUCGUAUUUAGUUA | 0.0423 ± 0.015
UCCUGCUACAGCUUGCAUAGUAUUUAGAUA | 0.15 ± 0.029
UCCUGGAUGUCCUUGCAAGUAUUUAGUUA | 0.00288 ± 0.0041

Same assay, conditions: guide: L1MC piRNA 5'p-UAACUAAAUACUAUGCAAGCUGUAGG; auxiliary factor: none (no GTSF1)

Sequence | pre-steady-state target cleavage rate
UCCUGGUACAGCUAGGAUAGUAUUUAGUUA | 0.00723 ± 0.0022
UCCUCCUUCAGCUUGCAAAGUAUUUAGUUA | 0.00632 ± 0.0021
UCCUGGAUGUCGUUGCAUACUUUUUAGUUA | 0.000824 ± 0.0075
UCCUCCUACAGCUUGCAUAGUAUUUAAUUA | 0.00326 ± 0.0027
UCCUGGUACAGCUUGCAUUGUAUUUAGUAA | 0.00248 ± 0.0052
UCCUGGUACAGCUUGCAUUGUAUAUAGUUA | 0.00415 ± 0.0033
UCCUGGAUGAGCUUGCAUAGUAUUGAGUUA | 0.00369 ± 0.0027
UCCUCCUACAGCUUGCAUAGUAGUUUAGUUA | 0.007 ± 0.0022
UCCUGGAUGAGCAUGCAUAGAAUUUAGUUA | 0.00251 ± 0.0028
UCCUGGAUGUCGUUGGAUACUAUUUAGUUA | < 0.0001
UCCUGGAUCUCGUUGCAUAGUAUUUAGUAA | 0.003 ± 0.0027
UCCUGGAUGAGCUUGCAUAGUAGUUAGUUA | 0.00314 ± 0.0032
UCCUGGAUCAGCUUGCAUAGUAUUAGUUA | 0.00276 ± 0.0031
UCCUGGAACAGCUUGCAUAGUAGUUAGUUA | 0.00378 ± 0.0026
UCCUGGAUGUGCUUGCAUAGGAUUUAGUUA | 0.00188 ± 0.0037
UCCUGGAUGAGCUUGCAUACUAUUUAGUAA | 0.00173 ± 0.0039
UCCUCCUACAGCUUGCUUAGUAUUUUGUUA | 0.0026 ± 0.0026
UCCUCCUACUGCUUGCAUAGUAUUUACUUA | 0.00215 ± 0.0026
UCCUCGAACAGCUUGCAUAGUAUUUAGUAA | 0.00453 ± 0.0022
UCCUGGAUCAGCUUGCAUAGUAUAAAGUUA | 0.00561 ± 0.0029

Sequence | pre-steady-state target cleavage rate
UCCUGGAUGAUGCUUGCAUAGUAUUUAGUUA | 0.00923 ± 0.0034
UCCUGCUACAGCUUGCAUCAGUAUUUAGUUA | 0.00186 ± 0.0032
UCCUGGAUGUGCUUGCAUAGUAUUUAAUUA | 0.00315 ± 0.003
UCCUCCUACAGCUUGCUAUGUAUUUAGUUA | 0.00506 ± 0.0018
UCCUGCUUCAGCUUGCAUAGUAUUUUGUUA | 0.00322 ± 0.0024
UCCUCCUAGUCCUUGCAUAGUAUUUAGUAA | 0.0027 ± 0.0023
UCCUGGAUGUCGAUGCUUAGUAUUUACUUA | 0.00034 ± 0.013
UCCUGGAUGUCGUGCAUAGUAUUUAGUUA | 0.00386 ± 0.0022
UCCUGGAUGUCGUUGGAUAGUAUUUAGUUA | 0.000938 ± 0.0064
UCCUGGAUCAGCUUGGAUAGUAUUAAGUUA | 0.00386 ± 0.0022
UCCUGGAUGUGCAUGCAUAGUAUUUAGAUA | 0.00184 ± 0.0046
UCCUGGAUGUCGAACGAUAGUAUUUAAGUUA | < 0.0001
UCCUCCUACAGCUUCCAUUGUAUUUAGUUA | 0.00238 ± 0.003
UCCUGGAUGUCGUUGCAUAGUAUAUACUUA | 0.00013 ± 0.042
UCCUCCUACACCUUGCAUAGUAAUUAGUUA | 0.00304 ± 0.0027
UCCUGGAACAGGAUGCAUAGUAUUUAGUUA | 0.0116 ± 0.0027
UCCUGGAUCAGGUUGCAUAGUAAUUAGUUA | 0.00739 ± 0.0017
UCCUGGAUGUCCUUGCAUCGUAUUUAGUUA | 0.00482 ± 0.0021
UCCUGCUACAGCUUGCAUAGUAUUUAGAUA | 0.002 ± 0.004
UCCUGGAUGUCCUUGCAAGUAUUUAGUUA | 0.00196 ± 0.0028
